# Test system: healthy volunteers
# Format: in vivo, human
smiles,measurement,setting,value
"COc1ccc(CO[C@H]2CC[C@@]3(C)C(=CC[C@H]4[C@@H]5CC[C@H](C(C)=O)[C@@]5(C)CC[C@@H]43)C2)cc1 [AEF0117, 3β-(4-methoxybenzyloxy)pregn-5-en-20-one]",plasma endocannabinoid (AEA and 2-AG) levels,"healthy volunteers, single administration",did not increase
same,plasma pregnenolone levels compared to placebo,in vivo,significantly higher
